According to article PMC6156765:
No constants are given. Whether binding was seen depends on the method and setting. Binding seen in cells or lysates may run through a third protein. These calls come from enrichment with a bait or labelling near it, and not all partners need be listed. Sequences can lack the tags named with a protein. One block for each molecule: values may come before it.

The chains behind the UniProt entries cited, without tags or fusion partners. Where a name states a change or a piece, a line headed by the entry shows the natural chain unless it says otherwise.
UniProt P62259: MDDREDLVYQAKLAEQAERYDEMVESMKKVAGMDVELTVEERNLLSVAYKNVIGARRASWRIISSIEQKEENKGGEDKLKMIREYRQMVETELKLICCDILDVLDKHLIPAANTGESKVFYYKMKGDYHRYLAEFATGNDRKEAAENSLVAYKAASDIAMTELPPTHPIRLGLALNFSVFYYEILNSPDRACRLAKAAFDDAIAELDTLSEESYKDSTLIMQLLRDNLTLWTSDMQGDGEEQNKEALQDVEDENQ
UniProt P63101: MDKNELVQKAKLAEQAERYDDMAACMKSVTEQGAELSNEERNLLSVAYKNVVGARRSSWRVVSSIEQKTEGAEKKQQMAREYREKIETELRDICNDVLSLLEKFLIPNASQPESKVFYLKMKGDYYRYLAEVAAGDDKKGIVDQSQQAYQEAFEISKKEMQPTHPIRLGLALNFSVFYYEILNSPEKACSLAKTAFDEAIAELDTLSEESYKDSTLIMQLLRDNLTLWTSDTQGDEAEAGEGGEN
UniProt P68510: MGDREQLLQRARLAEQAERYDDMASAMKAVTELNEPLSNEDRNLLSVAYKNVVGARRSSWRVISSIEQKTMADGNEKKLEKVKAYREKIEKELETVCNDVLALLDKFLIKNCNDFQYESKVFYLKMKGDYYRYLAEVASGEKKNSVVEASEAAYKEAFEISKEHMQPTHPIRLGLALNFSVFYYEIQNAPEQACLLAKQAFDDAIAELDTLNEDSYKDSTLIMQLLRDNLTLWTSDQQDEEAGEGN

Molecular target: T1, GFP-PTB1 + 2 (TBC1D1 tandem N-terminal PTB1-PTB2 domains, residues 1-381) (human) (UniProt Q86TI0)
T1 sequence: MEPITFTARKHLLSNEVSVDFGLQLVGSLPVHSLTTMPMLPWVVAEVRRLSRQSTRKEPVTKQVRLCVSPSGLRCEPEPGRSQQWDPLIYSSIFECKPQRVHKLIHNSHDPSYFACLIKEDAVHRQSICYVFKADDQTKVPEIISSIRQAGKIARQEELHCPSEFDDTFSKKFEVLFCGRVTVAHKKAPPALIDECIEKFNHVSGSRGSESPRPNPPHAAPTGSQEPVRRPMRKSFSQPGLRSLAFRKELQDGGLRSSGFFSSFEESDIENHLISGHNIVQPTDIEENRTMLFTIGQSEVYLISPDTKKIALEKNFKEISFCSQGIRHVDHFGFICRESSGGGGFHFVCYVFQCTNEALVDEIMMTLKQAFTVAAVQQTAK
Assay: affinity purification with mass spectrometry; SILAC; GFP-trap beads (4°C, 1 h) from lysates of C2C12 myotubes expressing GFP-PTB1 + 2 or GFP, precipitation buffer (50 mM Tris-HCl pH 7.4, 50 mM NaCl, 0.5% NP40), four washes, Nano LC-MS/MS

Molecule: 14-3-3 protein ε (from UniProt P62259 1-255)
- binding: binds

Molecule: 14-3-3 protein ζ/δ (from UniProt P63101 1-245)
- binding: binds

Molecule: 14-3-3 protein η (from UniProt P68510 1-246)
- binding: binds

B1: 14-3-3 protein α/β (protein, UniProt Q9CQV8 1-246)
chain: MTMDKSELVQKAKLAEQAERYDDMAAAMKAVTEQGHELSNEERNLLSVAYKNVVGARRSSWRVISSIEQKTERNEKKQQMGKEYREKIEAELQDICNDVLELLDKYLILNATQAESKVFYLKMKGDYFRYLSEVASGENKQTTVSNSQQAYQEAFEISKKEMQPTHPIRLGLALNFSVFYYEILNSPEKACSLAKTAFDEAIAELDTLNEESYKDSTLIMQLLRDNLTLWTSENQGDEGDAGEGEN
- binding: binds

The next lines start with the values.

- binding: binds
B2: 14-3-3 protein γ (protein, UniProt P61982 1-247)
chain: MVDREQLVQKARLAEQAERYDDMAAAMKNVTELNEPLSNEERNLLSVAYKNVVGARRSSWRVISSIEQKTSADGNEKKIEMVRAYREKIEKELEAVCQDVLSLLDNYLIKNCSETQYESKVFYLKMKGDYYRYLAEVATGEKRATVVESSEKAYSEAHEISKEHMQPTHPIRLGLALNYSVFYYEIQNAPEQACHLAKTAFDDAIAELDTLNEDSYKDSTLIMQLLRDNLTLWTSDQQDDDGGEGNN

- binding: binds
B3: IRAP (insulin-responsive aminopeptidase) (protein, UniProt Q8C129 1-1025)
chain: MESFTNDRLQLPRNMIENSMFEEEPDVVDLAKEPCLHPLEPDEVEYEPRGSRLLVRGLGEHEMDEDEEDYESSAKLLGMSFMNRSSGLRNSAAGYRQSPDGTCSLPSARTLVICVFVIVVAVSVIMVIYLLPRCTFTKEGCHKTNQSAELIQPVATNGKVFPWAQIRLPTAIIPLCYELSLHPNLTSMTFRGSVTISLQALQDTRDIILHSTGHNISRVTFMSAVSSQEKQVEILEYPYHEQIAVVAPEPLLTGHNYTLKIEYSANISNSYYGFYGITYTDKSNEKKYFAATQFEPLAARSAFPCFDEPAFKATFIIKITRNEHHTALSNMPKKSSVPAEEGLIQDEFSESVKMSTYLVAFIVGEMRNLSQDVNGTLVSVYAVPEKIGQVHHALDTTIKLLEFYQTYFEIQYPLKKLDLVAIPDFEAGAMENWGLLTFREETLLYDNATSSVADRKLVTKIIAHELAHQWFGNLVTMQWWNDLWLNEGFATFMEYFSVEKIFKELNSYEDFLDARFKTMRKDSLNSSHPISSSVQSSEQIEEMFDSLSYFKGASLLLMLKSYLSEDVFRHAVILYLHNHSYAAIQSDDLWDSFNEVTDKTLDVKKMMKTWTLQKGFPLVTVQRKGTELLLQQERFFLRMQPESQPSDTSHLWHIPISYVTDGRNYSEYRSVSLLDKKSDVINLTEQVQWVKVNSNMTGYYIVHYAHDDWTALINQLKRNPYVLSDKDRANLINNIFELAGLGKVPLRMAFDLIDYLKNETHTAPITEALFQTNLIYNLLEKLGHMDLSSRLVARVHKLLQNQIQQQTWTDEGTPSMRELRSALLEFACAHSLENCTTMATNLFDSWMASNGTQSLPTDVMVTVFKVGARTEKGWLFLFSMYSSMGSEAEKNKILEALASSEDVHKLYWLMKSSLDGDIIRTQKLSLIIRTVGRHFPGHLLAWDFVKENWNKLVHKFHLGSYTIQSIVAGSTHLFSTKTHLSEVQAFFENQSEATLKLRCVQEALEVIQLNIQWMVRNLKTLSQWL
